Data as given in PubChem BioAssay AID1259254 (NCATS, 2017).
In all, the deposit lists about 59,000 reagents; shown is a random part of them. Of all reagents, about 1,550 (2.6%) were called active. 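G2 share is only a proxy for re-replication; each gene was hit by three separate siRNAs, and active genes were retested.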 Unmarked entries are inactive. Not all columns of the deposit are shown. No sequences are given here. Not stated in the record: the amount of reagent.

Assay: 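Genome-wide screen for genes that prevent DNA re-replication in cancer cells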 (primary screen)
System: human HCT116 colorectal cancer cells
Reagents: single siRNA against human genes
Timing: 3 days
Measurement: 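Nuclei stained with Hoechst and imaged; cell-cycle phase assigned by DNA content; G2 share scaled per plate, non-targeting siRNA 0%, GMNN siRNA 100%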
Reading the numbers: G2 robust z-score and G2 cells, % of GMNN control: higher = more G2 cells, more excess DNA replication
Rule for the call: 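An siRNA counts as active if its G2 robust z-score lies at least 5 MADs above the screen median; here such calls match roughly 38% of GMNN control or more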

LOC112268070 (GeneID 112268070) [SID160725200] → G2 robust z-score: -1.33; G2 cells, % of GMNN control: -6.39
LOC112268070 (GeneID 112268070) [SID160765917] → G2 robust z-score: -1.33; G2 cells, % of GMNN control: -6.38
LOC112268070 (GeneID 112268070) [SID160765918] → G2 robust z-score: 0.519; G2 cells, % of GMNN control: 6.62
ABI3 (GeneID 51225) [SID160740352] → G2 robust z-score: -1.19; G2 cells, % of GMNN control: -5.41
ABI3 (GeneID 51225) [SID160740354] → G2 robust z-score: -0.455; G2 cells, % of GMNN control: -0.234
ABI3 (GeneID 51225) [SID160740355] → G2 robust z-score: -0.497; G2 cells, % of GMNN control: -0.527

No new results follow: entries from further up.
ABI3 (GeneID 51225) [SID160740352] → G2 robust z-score: -1.19; G2 cells, % of GMNN control: -5.41
ABI3 (GeneID 51225) [SID160740354] → G2 robust z-score: -0.455; G2 cells, % of GMNN control: -0.234

More reagents follow.
LAMTOR1 (GeneID 55004) [SID160742717] → G2 robust z-score: -0.711; G2 cells, % of GMNN control: -2.04
LAMTOR1 (GeneID 55004) [SID160742718] → G2 robust z-score: -0.254; G2 cells, % of GMNN control: 1.18
LAMTOR1 (GeneID 55004) [SID160742719] → G2 robust z-score: -0.352; G2 cells, % of GMNN control: 0.493
ANOS1 (GeneID 3730) [SID160776096] → G2 robust z-score: -0.825; G2 cells, % of GMNN control: -2.84
ANOS1 (GeneID 3730) [SID160776097] → G2 robust z-score: 0.537; G2 cells, % of GMNN control: 6.74
ANOS1 (GeneID 3730) [SID160776098] → G2 robust z-score: 0.622; G2 cells, % of GMNN control: 7.34
ERVFRD-1 (GeneID 405754) [SID160733360] → G2 robust z-score: -0.597; G2 cells, % of GMNN control: -1.23
ERVFRD-1 (GeneID 405754) [SID160767560] → G2 robust z-score: 0.524; G2 cells, % of GMNN control: 6.66
ERVFRD-1 (GeneID 405754) [SID160767561] → G2 robust z-score: 0.117; G2 cells, % of GMNN control: 3.79
SAP30 (GeneID 8819) [SID160720886] → G2 robust z-score: 0.328; G2 cells, % of GMNN control: 5.28
SAP30 (GeneID 8819) [SID160720888] → G2 robust z-score: 1.41; G2 cells, % of GMNN control: 12.9
SAP30 (GeneID 8819) [SID160720889] → G2 robust z-score: 1.31; G2 cells, % of GMNN control: 12.2
